# Measured values from patent US7238491.
# By UniProt entry, the sequences of proteins in these tests, tags left out. Where a name states a change or a piece, a line headed by the entry shows the natural chain unless it says otherwise.
# UniProt O75469: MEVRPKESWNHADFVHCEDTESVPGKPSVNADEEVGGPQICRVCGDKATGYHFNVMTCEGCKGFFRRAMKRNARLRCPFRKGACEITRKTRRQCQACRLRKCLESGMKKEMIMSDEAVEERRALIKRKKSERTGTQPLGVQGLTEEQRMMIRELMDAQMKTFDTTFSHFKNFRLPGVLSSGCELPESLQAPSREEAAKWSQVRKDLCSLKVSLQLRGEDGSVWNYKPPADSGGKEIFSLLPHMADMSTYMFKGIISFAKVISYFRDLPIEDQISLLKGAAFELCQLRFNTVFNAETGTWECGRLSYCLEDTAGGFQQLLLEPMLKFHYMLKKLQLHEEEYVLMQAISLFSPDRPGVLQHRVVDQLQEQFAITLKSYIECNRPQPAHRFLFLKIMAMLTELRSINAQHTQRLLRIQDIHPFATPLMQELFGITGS
# UniProt P19793: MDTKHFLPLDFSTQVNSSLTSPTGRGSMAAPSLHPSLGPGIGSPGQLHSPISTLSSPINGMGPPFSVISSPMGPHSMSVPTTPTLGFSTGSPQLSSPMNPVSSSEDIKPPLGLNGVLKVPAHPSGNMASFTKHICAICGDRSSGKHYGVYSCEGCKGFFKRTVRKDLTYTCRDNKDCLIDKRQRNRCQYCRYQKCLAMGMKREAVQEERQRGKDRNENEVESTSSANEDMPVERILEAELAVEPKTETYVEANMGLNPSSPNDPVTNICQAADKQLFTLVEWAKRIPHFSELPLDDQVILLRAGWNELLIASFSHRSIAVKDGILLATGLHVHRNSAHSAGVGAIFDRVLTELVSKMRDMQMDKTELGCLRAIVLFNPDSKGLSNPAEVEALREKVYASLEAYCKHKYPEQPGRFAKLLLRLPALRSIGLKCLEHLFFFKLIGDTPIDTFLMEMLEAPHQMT
# Results are given in words; binding and its absence hold for the method and conditions named. Binding seen in cells or lysates may run through a third protein. Some entries that bind do so weakly or less than the wild type. Where a sequence is shown, tags or fusion partners need not be part of it.
# Molecular target: T1, His6-PXR (polyhistidine-tagged human PXR amino acids 130-434) (human) (UniProt O75469)
# T1 sequence: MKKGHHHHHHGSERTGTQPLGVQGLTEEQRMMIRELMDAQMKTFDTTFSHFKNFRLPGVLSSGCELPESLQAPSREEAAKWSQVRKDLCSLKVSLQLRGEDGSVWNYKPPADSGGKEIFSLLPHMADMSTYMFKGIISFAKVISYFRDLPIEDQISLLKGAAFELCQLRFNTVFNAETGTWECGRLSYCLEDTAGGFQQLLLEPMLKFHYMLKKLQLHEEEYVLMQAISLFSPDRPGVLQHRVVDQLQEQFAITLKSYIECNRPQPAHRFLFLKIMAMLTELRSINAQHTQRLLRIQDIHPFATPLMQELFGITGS
# Experiment: co-expression in E. coli and co-purification on Ni chelation resin (only PXR is His-tagged), then size exclusion
substance,measurement,value
RXRα amino acids 225-462 (co-expressed with His6-PXR) (from UniProt P19793 225-462) (receptor),binding,binds
